In PMC10817939:
No constants are given. Whether binding was seen depends on the method and setting. Binding seen in cells or lysates may run through a third protein. Some results given as binding are weak or reduced against the parent protein; the word gives no strength.

By UniProt entry, the sequences of proteins in these tests, tags left out.
UniProt O95071: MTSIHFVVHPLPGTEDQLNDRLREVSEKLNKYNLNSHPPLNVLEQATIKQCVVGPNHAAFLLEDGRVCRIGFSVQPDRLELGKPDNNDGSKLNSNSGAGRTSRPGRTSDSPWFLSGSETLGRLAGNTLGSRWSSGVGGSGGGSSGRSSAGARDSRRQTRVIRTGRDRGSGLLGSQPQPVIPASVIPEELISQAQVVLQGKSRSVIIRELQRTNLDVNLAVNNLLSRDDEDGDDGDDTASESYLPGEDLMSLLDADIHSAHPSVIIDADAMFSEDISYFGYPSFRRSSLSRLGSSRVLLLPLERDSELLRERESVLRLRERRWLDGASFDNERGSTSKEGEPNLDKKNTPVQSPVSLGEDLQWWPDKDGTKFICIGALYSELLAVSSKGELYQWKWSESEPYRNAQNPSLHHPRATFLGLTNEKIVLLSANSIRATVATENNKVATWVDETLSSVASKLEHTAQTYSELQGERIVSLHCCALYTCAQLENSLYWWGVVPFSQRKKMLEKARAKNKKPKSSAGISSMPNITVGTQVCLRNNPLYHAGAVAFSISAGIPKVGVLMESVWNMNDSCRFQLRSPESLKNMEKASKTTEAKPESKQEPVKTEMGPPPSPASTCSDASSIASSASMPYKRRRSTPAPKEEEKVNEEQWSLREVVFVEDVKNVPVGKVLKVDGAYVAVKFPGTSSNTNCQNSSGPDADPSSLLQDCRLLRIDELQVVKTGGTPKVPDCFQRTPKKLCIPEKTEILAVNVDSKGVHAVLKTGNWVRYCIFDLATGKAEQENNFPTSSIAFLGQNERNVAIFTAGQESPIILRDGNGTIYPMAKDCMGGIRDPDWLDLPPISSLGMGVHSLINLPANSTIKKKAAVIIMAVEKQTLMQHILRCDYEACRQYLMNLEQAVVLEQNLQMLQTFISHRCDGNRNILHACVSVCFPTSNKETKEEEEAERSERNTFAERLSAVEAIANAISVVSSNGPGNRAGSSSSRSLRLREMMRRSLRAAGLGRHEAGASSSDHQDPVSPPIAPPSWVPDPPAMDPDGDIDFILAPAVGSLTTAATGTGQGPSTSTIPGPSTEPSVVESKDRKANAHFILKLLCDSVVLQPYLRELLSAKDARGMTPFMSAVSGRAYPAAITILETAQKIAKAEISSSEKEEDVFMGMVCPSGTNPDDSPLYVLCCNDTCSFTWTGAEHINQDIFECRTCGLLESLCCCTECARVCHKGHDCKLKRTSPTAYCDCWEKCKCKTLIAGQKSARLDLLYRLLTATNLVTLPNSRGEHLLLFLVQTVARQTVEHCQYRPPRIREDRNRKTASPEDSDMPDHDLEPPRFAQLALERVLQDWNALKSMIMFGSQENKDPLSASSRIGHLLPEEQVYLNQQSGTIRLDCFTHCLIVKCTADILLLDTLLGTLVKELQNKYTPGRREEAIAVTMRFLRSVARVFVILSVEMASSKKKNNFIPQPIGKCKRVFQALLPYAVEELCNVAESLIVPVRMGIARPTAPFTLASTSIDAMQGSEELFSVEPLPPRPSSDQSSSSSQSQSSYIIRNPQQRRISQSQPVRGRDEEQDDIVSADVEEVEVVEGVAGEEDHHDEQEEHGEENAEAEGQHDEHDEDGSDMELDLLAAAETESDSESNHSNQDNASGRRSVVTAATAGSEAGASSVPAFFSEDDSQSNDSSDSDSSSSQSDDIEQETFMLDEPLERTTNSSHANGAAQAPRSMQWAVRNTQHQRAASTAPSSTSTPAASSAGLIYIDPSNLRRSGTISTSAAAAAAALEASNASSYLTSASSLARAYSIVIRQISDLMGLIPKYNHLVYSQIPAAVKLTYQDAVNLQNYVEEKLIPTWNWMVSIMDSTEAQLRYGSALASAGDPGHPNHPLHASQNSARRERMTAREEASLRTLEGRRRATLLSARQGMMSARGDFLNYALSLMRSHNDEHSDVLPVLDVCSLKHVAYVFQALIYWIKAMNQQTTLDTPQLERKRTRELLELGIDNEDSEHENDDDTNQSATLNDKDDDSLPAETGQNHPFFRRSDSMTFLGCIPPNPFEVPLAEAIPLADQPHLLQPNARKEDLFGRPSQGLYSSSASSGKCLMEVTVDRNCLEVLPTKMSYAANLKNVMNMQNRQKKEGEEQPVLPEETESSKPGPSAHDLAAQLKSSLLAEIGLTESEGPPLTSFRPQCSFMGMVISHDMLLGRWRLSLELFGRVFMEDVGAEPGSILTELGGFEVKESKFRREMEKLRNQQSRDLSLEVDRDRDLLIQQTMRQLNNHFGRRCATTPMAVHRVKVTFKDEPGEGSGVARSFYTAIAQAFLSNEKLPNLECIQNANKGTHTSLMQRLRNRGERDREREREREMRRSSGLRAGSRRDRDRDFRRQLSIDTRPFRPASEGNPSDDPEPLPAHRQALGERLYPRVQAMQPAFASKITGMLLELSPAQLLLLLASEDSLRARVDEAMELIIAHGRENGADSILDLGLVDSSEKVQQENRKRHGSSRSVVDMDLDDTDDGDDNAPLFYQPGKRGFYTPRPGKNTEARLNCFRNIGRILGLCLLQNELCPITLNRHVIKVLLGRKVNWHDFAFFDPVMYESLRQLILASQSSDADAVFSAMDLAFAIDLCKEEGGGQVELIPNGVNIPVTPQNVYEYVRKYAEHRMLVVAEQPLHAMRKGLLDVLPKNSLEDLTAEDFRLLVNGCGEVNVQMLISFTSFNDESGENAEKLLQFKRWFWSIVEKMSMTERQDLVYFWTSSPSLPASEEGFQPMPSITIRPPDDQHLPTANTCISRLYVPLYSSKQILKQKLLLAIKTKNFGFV
UniProt Q13263: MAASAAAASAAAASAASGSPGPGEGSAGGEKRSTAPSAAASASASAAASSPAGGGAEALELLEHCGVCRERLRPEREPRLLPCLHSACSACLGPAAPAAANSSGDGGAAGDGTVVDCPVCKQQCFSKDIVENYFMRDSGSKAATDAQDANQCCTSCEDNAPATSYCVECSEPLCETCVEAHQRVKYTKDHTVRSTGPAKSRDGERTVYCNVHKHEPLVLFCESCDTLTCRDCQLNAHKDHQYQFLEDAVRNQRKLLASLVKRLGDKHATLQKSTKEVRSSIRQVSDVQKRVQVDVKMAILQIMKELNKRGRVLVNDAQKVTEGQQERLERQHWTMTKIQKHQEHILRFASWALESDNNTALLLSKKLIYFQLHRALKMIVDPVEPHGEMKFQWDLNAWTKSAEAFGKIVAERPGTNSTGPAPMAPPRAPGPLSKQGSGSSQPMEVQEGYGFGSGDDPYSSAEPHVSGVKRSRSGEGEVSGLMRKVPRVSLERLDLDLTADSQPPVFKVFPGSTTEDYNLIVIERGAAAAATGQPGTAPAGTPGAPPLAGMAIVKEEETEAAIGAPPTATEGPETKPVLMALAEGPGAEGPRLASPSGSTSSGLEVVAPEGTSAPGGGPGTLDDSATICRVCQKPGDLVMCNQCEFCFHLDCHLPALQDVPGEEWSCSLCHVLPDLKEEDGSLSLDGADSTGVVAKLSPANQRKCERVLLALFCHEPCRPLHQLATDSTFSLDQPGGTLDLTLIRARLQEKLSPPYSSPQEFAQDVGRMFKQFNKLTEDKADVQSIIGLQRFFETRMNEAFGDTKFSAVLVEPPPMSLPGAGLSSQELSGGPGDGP
UniProt P04406: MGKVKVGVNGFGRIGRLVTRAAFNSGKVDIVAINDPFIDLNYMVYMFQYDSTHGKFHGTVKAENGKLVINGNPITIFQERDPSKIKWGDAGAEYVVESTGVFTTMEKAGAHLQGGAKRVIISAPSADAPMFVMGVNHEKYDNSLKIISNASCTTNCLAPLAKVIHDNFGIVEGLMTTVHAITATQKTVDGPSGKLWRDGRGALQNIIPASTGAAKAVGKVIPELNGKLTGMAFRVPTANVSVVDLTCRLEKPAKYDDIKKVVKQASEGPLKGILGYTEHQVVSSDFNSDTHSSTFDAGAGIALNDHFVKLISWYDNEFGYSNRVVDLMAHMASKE

Key:
[1] = biological target: FLAG-UBR5 (Ubiquitin Protein Ligase E3 Component N-Recognin 5) (UniProt O95071); experiment: co-IP; FLAG-tagged bait or vector expressed in HEK293T cells for 24 h (in some cases then poly (I:C) for 12 h); whole-cell extract in 150 mM NaCl, 50 mM Tris pH 7.5, 1 mM EDTA, 0.5% NP40, 10% glycerol; anti-FLAG magnetic beads overnight at 4 °C; eluted with 3x FLAG peptide; immunoblot
[2] = biological target: FLAG-TRIM28 (UniProt Q13263); experiment: as above

GAPDH (from UniProt P04406 1-335)
binding [1]: no binding

endogenous TRIM28 (Tripartite Motif Protein 28) (from UniProt Q13263 1-835)
binding [1]: binds

endogenous UBR5 (from UniProt O95071 1-2799) (enzyme)
binding [2]: binds
